# Experimental data published in PubChem BioAssay AID662 (National Center for Advancing Translational Sciences (NCATS), 2007).
# The other results are listed elsewhere or left out. Further columns of the screen follow, without active or inactive calls. The list favours compounds with an active or inconclusive main result. Potencies come from curve fits of mixed quality, noted in brackets.
# Test: Cell signaling CRE-BLA (Fsk stim)
# Settings: CHO CRE-bla reporter (cAMP response element driving beta-lactamase), forskolin EC10, beta-lactamase ratio; measured here: 460 nm blue channel
# Method in brief: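 AC50 values, positive or negative, reflect shifts in EC10 NKH 477-induced CRE-bla reporter activity in CHO cells. Incubation lasted 3 h at 37 °C before CCF4 substrate (2 h, room temperature) and ratiometric 460/530 nm reading.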
row,Compound,AC50
1,N#Cc1ccc(NC(=O)N2CCC(c3nc4c(nnn4Cc4cccc(Cl)c4)c(=O)[nH]3)CC2)cc1,"20 µM [rising, single point]"
2,CCOC(=O)c1c(C)[nH]c(C=Nc2ccccc2)c1O,"3.16 µM [falling, partial curve]"
3,O=C(c1cnccn1)N1CCC2(CCCN(C(c3ccccc3)c3ccccc3)C2)CC1,"12.6 µM [rising, single point]"
4,Nc1cccc(-n2nncc2-c2ccccc2)c1,"0.00794 µM [falling, partial curve, poor fit]"
5,CCNc1ncc2nc(-c3ccc(OC)cc3)c(=O)n(CCc3ccccc3)c2n1,"5.01 µM [rising, partial curve]"
6,CC(C)(C#N)Nc1ccccc1,"3.98 µM [falling, partial curve]"
7,C=CCn1c(NC(C)c2cc(Cl)ccc2O)nc2ccccc21 (stereo not given),"25.1 µM [falling, single point]"
8,N#CC1=C(N)Oc2c(sc3ccccc23)C1c1ccco1 (stereo not given),"3.16 µM [rising, single point]"
9,O=C(/C=C\c1ccc(O)cc1)c1ccc(O)cc1O,"25.1 µM [falling, single point]"
10,COc1ccc(N(CC(=O)Nc2cc(OC)ccc2OC)S(=O)(=O)c2c(C)nn(C)c2C)cc1,"3.16 µM [rising, full curve]"
11,Cc1cc(Nc2ccccc2N2CCOCC2)n2ncnc2n1,"12.6 µM [rising, single point]"
12,CCn1c(SCC(=O)N2CCCC2)nc2c1c(=O)n(C)c(=O)n2C,"5.01 µM [falling, single point]"
13,CCN1CCCC1CNc1ncnc2c1[nH]c1ccc(Cl)cc12 (stereo not given),"12.6 µM [rising, single point]"
14,CCn1c(=N)c(S(=O)(=O)c2ccc(F)cc2)cc2c(=O)n3ccccc3nc21,"2 µM [rising, full curve]"
15,CCNc1ncc2nc(-c3ccccc3)c(=O)n(Cc3cccs3)c2n1,"3.16 µM [rising, full curve]"
16,COc1ccc(NC(=O)C2CCCN2S(=O)(=O)c2ccc3c(c2)CCC(=O)N3)c(OC)c1 (stereo not given),"10 µM [rising, single point]"
17,CCc1nc(N2CCC(C)CC2)c2oc3ccccc3c2n1,"10 µM [rising, partial curve]"
18,CC(=O)N1c2ccccc2N(Cc2ccc(C)cc2C)C(=O)C1(C)C,"10 µM [rising, partial curve]"
19,COc1ccccc1-c1cc(C(F)(F)F)nc(S(=O)(=O)CCCC(=O)Nc2cc(C)on2)n1,"2.51 µM [falling, full curve]"
20,CCCCN(Cc1cc2cc(OC)ccc2[nH]c1=O)C(=O)c1ccco1,"25.1 µM [rising, single point]"
21,COc1cc(-c2nc3oc4ccccc4c(=O)c3c(=O)n2Cc2ccco2)cc(OC)c1OC,"2 µM [rising, full curve]"
22,Cc1onc(-c2ccccc2)c1C(=O)NCCc1c[nH]c2ccccc12,"0.0794 µM [falling, full curve, poor fit]"

row,Compound,AC50
1,COc1cc2c(cc1OC)CN(C(=O)C1(c3ccccc3)CC1)CC2,"10 µM [rising, single point]"
2,O=C(NCc1cccs1)C1CCN(c2ccc(S(=O)(=O)N3CCOCC3)cc2Cl)CC1,"10 µM [rising, single point]"
3,COC(=O)[C@@]1(Cc2ccccc2)[C@H]2c3cc(C(=O)N(C)C)n(Cc4ccc(O)c(OC)c4)c3C[C@H]2CN1C(=O)c1ccccc1,"6.31 µM [rising, partial curve]"
4,CCCCn1c(SCC(=O)Nc2cc(C)[nH]n2)nc2ccsc2c1=O,"25.1 µM [rising, single point]"
5,CC(C)C[C@@H](CC(=O)N[C@@H](CCC(=O)O)CC(=O)O)NC(=O)[C@@H]1CNCC[C@H]1NC(=O)C[C@H](CCCN)NC(=O)C[C@H](CO)NC(=O)[C@@H]1CNCC[C@H]1N,"5.01 µM [falling, partial curve, poor fit]"
6,COc1cc(-c2noc(-c3ccccc3C(=O)NCc3ccco3)n2)cc(OC)c1OC,"5.01 µM [rising, partial curve]"
7,CCCCC(CC)CNC(=O)CCS(=O)(=O)c1cccc2nonc12 (stereo not given),"0.1 µM [falling, full curve]"
8,CCOC(=O)CCNC(=O)Nc1ccc2nc(C)n(Cc3cccc(Cl)c3)c(=O)c2c1,"12.6 µM [rising, partial curve]"
9,Cn1c2ccccc2c2c(C(=O)NCc3ccco3)cn(C3CCCCC3)c(=O)c21,"7.94 µM [rising, partial curve]"
10,COc1cccc2c1C(=O)c1c(O)c3c(c(O)c1C2=O)C[C@@](O)(C(C)=O)C[C@@H]3O[C@H]1C[C@H](N)[C@H](O)[C@H](C)O1,"20 µM [falling, partial curve, poor fit]"
11,O=C(COC(=O)c1cc(=O)[nH]c2ccccc12)NC(=O)NC1CCCCC1,"3.16 µM [falling, partial curve]"
12,COc1ccc(C(=O)Nc2ccccc2C(N)=O)cc1,"12.6 µM [rising, partial curve]"
13,CSc1nc(-c2ccco2)cc(-c2ccccc2)c1C#N,"15.8 µM [rising, partial curve, poor fit]"
14,CNc1nc(-c2ccccc2C(F)(F)F)nc2ccccc12,"10 µM [rising, partial curve]"
15,Cc1occc1-c1nnc(SCC(=O)NCC2CCCO2)n1C (stereo not given),"12.6 µM [rising, single point]"
16,O=C(Nn1cnnc1)c1cc2cc(Br)ccc2oc1=O,"25.1 µM [rising, single point]"
17,Cc1nc2cc(C(=O)NCCN3CCOCC3)ccc2n1-c1ccc(F)cc1F,"25.1 µM [rising, single point]"
18,Cc1cccc(Cl)c1NC[C@H](O)CN1CCN(C)CC1,"0.0251 µM [rising, single point]"
19,CCOC(=O)C1=C(C)NC(SCc2cc(=O)[nH][nH]2)=C(C#N)C1c1cccs1 (stereo not given),"5.01 µM [falling, partial curve]"
20,COc1ccc2[nH]c(=O)c(CN(CCO)C(=O)c3ccccc3F)cc2c1,"25.1 µM [falling, single point]"
21,CC(C)c1ccccc1NC(=O)CCCC(=O)O,"0.631 µM [rising, single point]"
22,COc1ccc2c(C)c(Cl)c(=O)oc2c1,"15.8 µM [rising, partial curve]"

# Reformatted tab-delimited: 12 of the compounds above
row	Compound	AC50
3	COC(=O)[C@@]1(Cc2ccccc2)[C@H]2c3cc(C(=O)N(C)C)n(Cc4ccc(O)c(OC)c4)c3C[C@H]2CN1C(=O)c1ccccc1	6.31 µM [rising, partial curve]
4	CCCCn1c(SCC(=O)Nc2cc(C)[nH]n2)nc2ccsc2c1=O	25.1 µM [rising, single point]
5	CC(C)C[C@@H](CC(=O)N[C@@H](CCC(=O)O)CC(=O)O)NC(=O)[C@@H]1CNCC[C@H]1NC(=O)C[C@H](CCCN)NC(=O)C[C@H](CO)NC(=O)[C@@H]1CNCC[C@H]1N	5.01 µM [falling, partial curve, poor fit]
6	COc1cc(-c2noc(-c3ccccc3C(=O)NCc3ccco3)n2)cc(OC)c1OC	5.01 µM [rising, partial curve]
7	CCCCC(CC)CNC(=O)CCS(=O)(=O)c1cccc2nonc12 (stereo not given)	0.1 µM [falling, full curve]
8	CCOC(=O)CCNC(=O)Nc1ccc2nc(C)n(Cc3cccc(Cl)c3)c(=O)c2c1	12.6 µM [rising, partial curve]
9	Cn1c2ccccc2c2c(C(=O)NCc3ccco3)cn(C3CCCCC3)c(=O)c21	7.94 µM [rising, partial curve]
10	COc1cccc2c1C(=O)c1c(O)c3c(c(O)c1C2=O)C[C@@](O)(C(C)=O)C[C@@H]3O[C@H]1C[C@H](N)[C@H](O)[C@H](C)O1	20 µM [falling, partial curve, poor fit]
11	O=C(COC(=O)c1cc(=O)[nH]c2ccccc12)NC(=O)NC1CCCCC1	3.16 µM [falling, partial curve]
12	COc1ccc(C(=O)Nc2ccccc2C(N)=O)cc1	12.6 µM [rising, partial curve]
13	CSc1nc(-c2ccco2)cc(-c2ccccc2)c1C#N	15.8 µM [rising, partial curve, poor fit]
14	CNc1nc(-c2ccccc2C(F)(F)F)nc2ccccc12	10 µM [rising, partial curve]

# Continued.

row,Compound,AC50
1,CCCn1cnc2c(SCc3ccc(Cl)cc3)nc(N)nc21,"3.98 µM [rising, partial curve]"
2,O=C1CN(C(=O)COC(=O)c2ccccc2NC(=O)c2ccco2)c2ccccc2N1,"10 µM [rising, partial curve]"
3,COc1ccc(-n2c(=O)c(-c3cccs3)nc3cnc(Nc4ccccc4)nc32)cc1,"5.01 µM [rising, partial curve]"
4,CNc1nc(-c2cccc(NS(C)(=O)=O)c2)nc2ccccc12,"6.31 µM [rising, partial curve]"
5,COc1cc(NC(=O)c2cccc3c2C(=O)N(Cc2cccnc2)C3)cc(OC)c1OC,"2.51 µM [rising, partial curve]"
6,Nc1nc2c3ccccc3nc(C3CC3)n2n1,"25.1 µM [rising, single point]"
7,COCCN(CC(=O)NCc1ccccc1)C(=O)CCC(=O)Nc1ccccn1,"0.00316 µM [falling, full curve, poor fit]"
8,CC(C#N)On1c(SC(C)C#N)nc2ccccc2c1=O (stereo not given),"25.1 µM [rising, single point]"
9,Cc1cc(C)c2c(c1)-c1cc(C)nn1C(c1ccc3c(c1)OCO3)N2 (stereo not given),"5.01 µM [falling, single point]"
10,O=C(Nc1nc(-c2nc3ccccc3s2)cs1)c1ccc(S(=O)(=O)N2CCOCC2)cc1,"5.01 µM [falling, full curve]"
11,CCOC(=O)c1c(C)[nH]c(C)c1C(=O)Cn1nnc(-c2ccccc2C)n1,"12.6 µM [rising, partial curve]"
12,CC(=O)c1ccc(Nc2nc(C)nc3c2oc2ccccc23)cc1,"2 µM [rising, full curve]"
13,COCCN1C=C(C(=O)OC)C(c2cc3c(cc2Br)OCO3)C(C(=O)OC)=C1,"10 µM [rising, partial curve]"
14,CC(C)N(C(=O)CSc1nnnn1C1CCCC1)C(C)C,"3.16 µM [falling, single point]"
15,CCOC(=O)c1cc2c(ccn2C)n1CC(=O)N1CCN(c2ccc(F)cc2)CC1,"25.1 µM [falling, partial curve, poor fit]"
16,COc1ccc(-c2nc3cnc(N(C)C)nc3n(-c3ccccc3)c2=O)cc1,"2 µM [rising, full curve]"
17,COC(=O)[C@@]1(Cc2ccc(OC)cc2)[C@H]2c3cc(C(=O)N(C)C)n(Cc4cc(C)n(C)n4)c3C[C@H]2CN1C(=O)c1ccccc1,"12.6 µM [rising, partial curve]"
18,CC(=O)C1=C(C)NC(SCC(=O)c2ccc(C)cc2)=C(C#N)C1c1ccco1 (stereo not given),"2 µM [rising, full curve]"
19,Cc1noc(C)c1C(=O)N1CCC[C@@]2(CCN(c3cccc(-c4ccccc4)c3)C2)C1,"12.6 µM [rising, single point]"
20,Cc1cccc(N2CCN(C(=O)c3cc4c(=O)n(C)c5ccccc5c4n3C)CC2C)c1 (stereo not given),"12.6 µM [falling, single point]"
21,Cc1noc(C)c1CSc1nc2sc(C)c(C)c2c(=O)n1C1CCCC1,"2 µM [rising, partial curve]"
